Consider one compound from US10869933B2, “Oligomer-phenothiazine conjugates” (Nektar Therapeutics, priority 2009, dated 2020).

This series is described as follows: in vivo. Particulars: rat, iv, 5 mg/kg, Brain/plasma ratio Mean.

Usually Kp stands for the ratio of the level in a tissue or fluid to that in plasma or blood. Take `CC(C)NCC(O)COc1ccc(CC(N)=O)cc1` (stereo not shown) [Atanolol, Atenolol]: the Kp at 1 h is 0.024.
